According to PubChem BioAssay AID504327 (National Center for Advancing Translational Sciences (NCATS), 2011):
“And” between values parts separate entries of the source, which are not always exact repeats. Identical values can stand only once. The campaign covered roughly 390,000 compounds. About 820 (0.21%) were called active. The shares of active, inactive and inconclusive entries below differ from those in the screen. The call rests on the fitted dose curve; in most records, active means well fitted inhibition curve with a large enough effect; inconclusive means small, poorly fitted or top-dose-only effect, or another doubt; inactive means no such curve, though single readings can be large or run the other way. Where the call is inconclusive, the potency comes from a doubtful curve fit.
On the % scale 0 is the no-effect control and ±100 the full control effect; potency means the concentration at half of the fitted maximal effect.

Chains of the proteins cited; added tags and fusions are not shown.
UniProt Q92830, whole entry, looked up: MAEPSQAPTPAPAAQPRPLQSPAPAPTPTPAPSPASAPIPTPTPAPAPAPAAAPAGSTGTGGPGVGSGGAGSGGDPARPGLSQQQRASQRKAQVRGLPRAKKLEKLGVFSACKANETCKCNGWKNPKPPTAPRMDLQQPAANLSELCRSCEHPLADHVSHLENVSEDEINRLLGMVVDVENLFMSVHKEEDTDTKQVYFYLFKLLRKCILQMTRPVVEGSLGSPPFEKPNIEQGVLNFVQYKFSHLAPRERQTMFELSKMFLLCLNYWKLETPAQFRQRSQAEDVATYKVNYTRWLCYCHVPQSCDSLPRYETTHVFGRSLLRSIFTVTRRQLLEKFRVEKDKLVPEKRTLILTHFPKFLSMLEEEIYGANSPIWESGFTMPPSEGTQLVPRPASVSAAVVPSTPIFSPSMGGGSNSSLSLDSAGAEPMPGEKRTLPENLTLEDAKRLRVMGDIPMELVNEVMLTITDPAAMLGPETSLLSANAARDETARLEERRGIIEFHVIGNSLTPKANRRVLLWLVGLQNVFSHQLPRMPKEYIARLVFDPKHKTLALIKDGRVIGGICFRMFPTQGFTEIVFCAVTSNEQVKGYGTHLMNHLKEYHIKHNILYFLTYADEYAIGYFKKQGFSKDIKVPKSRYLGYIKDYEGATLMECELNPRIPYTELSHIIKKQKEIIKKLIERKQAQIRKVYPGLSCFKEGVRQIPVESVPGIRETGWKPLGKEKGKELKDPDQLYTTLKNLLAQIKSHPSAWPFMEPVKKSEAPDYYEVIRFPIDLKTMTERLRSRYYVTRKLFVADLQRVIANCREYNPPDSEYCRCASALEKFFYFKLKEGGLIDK

What follows are compounds tested against Histone acetyltransferase KAT2A (Homo sapiens) (UniProt Q92830) (assay: qHTS Assay for Inhibitors of GCN5L2). Conditions: GCN5L2 HAT assay, ThioGlo1 CoA-SH fluorescence; activity change, negative = inhibition: at 58.9 µM (top of the series) unless noted.
Outline: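 GCN5L2 (20 nM) in 50mM HEPES pH 7.5, 0.1mM EDTA, 0.01% Tween-20 preincubated 15 min with compounds at room temperature. Reaction started with H3(1-25) 75uM, acetyl-CoA 70uM, ThioGlo1 50uM; CoA-thiol fluorescence (Ex340/Em540) read at 0 and 20 min.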
`CCC(=O)c1cn(CC(=O)Nc2cccc(C)c2)c2ccccc12` was tested, and the Potency was inconclusive: 8.91 µM [inhibitor, single point]. `O=C1OCCN1C(=O)[C@H]1[C@H](c2ccc(Cl)cc2)C(c2ccccc2)=NN1c1ccccc1` was tested, and the Potency was inconclusive: 25.1 µM [inhibitor, single point] and inconclusive: 22.4 µM [inhibitor, single point]. For `CCN(CC)c1ccc(C(=C2C=CC(=[N+](CC)CC)C=C2)c2ccccc2)cc1`, the Potency was inconclusive: 35.5 µM [inhibitor, single point]. `Cc1cc2c(cc1S(=O)(=O)CCC(=O)NC1CCCCC1C)OCC(=O)N2` (stereo not drawn) was tested, and the Potency was inconclusive: 39.8 µM [inhibitor, single point]. For `CCc1ccc([C@@H]2CC=C(C(=O)O)[C@H](c3ccc(Cl)cc3)N2S(=O)(=O)c2ccc(C)cc2)cc1`, the Potency was inconclusive: 39.8 µM [inhibitor, single point]. In the case of `NC(=O)c1ccsc1N`, the Potency is reported as inconclusive: 10 µM [inhibitor, partial curve]. In the case of `CN(C)C=NC(=O)c1cc(C(=O)c2ccc(F)cc2)c[nH]1`, the Potency is reported as inconclusive: 39.8 µM [inhibitor, single point]. In the case of `COC(=O)c1ccc2c(=O)n(C3CCCCC3)c(SCC#N)nc2c1`, the Potency is reported as inconclusive: 7.08 µM [inhibitor, single point]. In the case of `O=C(NC1=NCCS1)c1sc2ccccc2c1Cl`, the Potency is reported as inconclusive: 39.8 µM [inhibitor, single point]. `O=C(O)CCCCCNC(=O)c1ccncc1` was tested, and the Potency was inconclusive: 6.31 µM [inhibitor, single point]. With `COc1cc([N+](=O)[O-])ccc1NC(=O)CCS(=O)(=O)c1ccc2c(c1)n(C)c(=O)c(=O)n2C` the Potency was inconclusive: 0.126 µM [inhibitor, full curve, poor fit]. With `Cc1cc(C)c(S(=O)(=O)N2CCC(n3c(C(F)(F)F)nc4cccnc43)CC2)c(C)c1` the Potency was “inactive”. `CC(c1nnc(SCC(=O)Nc2cc([N+](=O)[O-])ccc2F)n1Cc1ccccc1)N(C)C` (stereo not drawn) was tested, and the Potency was “inactive”. In the case of `COc1ccccc1NS(=O)(=O)c1ccc(O)cc1`, the Potency is reported as “inactive”. For `O=C(NCC1COCCO1)c1ccc2nc(Cc3cccc(Cl)c3)oc2c1` (stereo not drawn), the Potency was inconclusive: 8.91 µM [inhibitor, single point]. With `O=c1[nH]n2c(=O)c3c([nH]c2c1N=Nc1cccc(Cl)c1)CCC3` the Potency was inconclusive: 39.8 µM [inhibitor, single point]. `O=C(Nc1ccc(Cl)cn1)Nc1ccccc1Cl` was tested, and the Potency was inconclusive: 31.6 µM [inhibitor, single point]. `COCCn1c(-c2ccccc2)csc1=Nc1cccnc1` was tested, and the Potency was “inactive”. With `CCOC(=O)C1CCN(C(=O)c2cc(-c3ccncc3)nc3ccccc23)CC1` the Potency was “inactive”. `O=C(COC(=O)CN1C(=O)C2CCCCC2C1=O)Nc1cc(F)ccc1F` (stereo not drawn) was tested, and the Potency was “inactive”. In the case of `OC(COCc1cccs1)CN1CCN(c2ccccc2Cl)CC1` (stereo not drawn), the Potency is reported as “inactive”. For `COc1ccc(OC)c(S(=O)(=O)N2CCCC(C(=O)N3CCCCCC3)C2)c1` (stereo not drawn), the Potency was inconclusive: 2.51 µM [inhibitor, partial curve]. For `CCOc1ccc(NC(=NCc2ccc3c(c2)OCO3)SC2CC(=O)N(c3ccc(C(=O)O)cc3)C2=O)cc1` (stereo not drawn), the Potency was inconclusive: 39.8 µM [inhibitor, single point]. For `Cc1ccc2nc(/C(C#N)=N/O)[nH]c2c1`, the Potency was inconclusive: 7.08 µM [inhibitor, single point]. For `O=C(c1cccs1)N1CCN=C1SCc1cccnc1`, the Potency was “inactive”. `CCc1ccc(NC(=O)CN2CCN(C3CCCCC3)C(=O)C2=O)cc1` was tested, and the Potency was “inactive”. With `O=C(NCCCCc1ccccc1)C12CN(Cc3ccccc3)CC1C(c1ccc([N+](=O)[O-])cc1)=NO2` (stereo not drawn) the Potency was inconclusive: 6.31 µM [inhibitor, single point]. With `CC(=O)N1CCc2cc(S(=O)(=O)CCC(=O)NCCc3ccc(C)cc3)ccc21` the Potency was inconclusive: 0.316 µM [inhibitor, full curve, poor fit]. `Cc1cc(C(=O)N/N=C/c2ccc(O)c(O)c2O)c(C)n1-c1ccccc1` was tested, and the Potency was inconclusive: 11.2 µM [inhibitor, partial curve]. With `CN(C)CC(O)Cn1c2ccc(Br)cc2c2cc(Br)ccc21` (stereo not drawn) the Potency was inconclusive: 39.8 µM [inhibitor, single point]. With `Nc1nc(NS(=O)(=O)c2ccc(Cl)cc2)nn1-c1ccccc1` the Potency was inconclusive: 10 µM [inhibitor, partial curve, poor fit]. `C=CCNC(=S)/C(=C(\[O-])c1ccc(Cl)cc1)[n+]1ccccc1` was tested, and the Potency was “inactive”. `Cc1ccn2c(Nc3ccccc3C)c(-c3ccc(N4CCOCC4)cc3)nc2c1` was tested, and the Potency was inconclusive: 25.1 µM [inhibitor, single point]. With `Cc1ccc(CCNC(=O)CCNS(=O)(=O)c2ccc3c(c2)c(=O)n(C)c(=O)n3C)cc1` the Potency was inconclusive: 7.08 µM [inhibitor, single point]. In the case of `COc1ccc(/C=C2\SC(=S)N(CCC(=O)Nc3cccc(O)c3)C2=O)cc1`, the Potency is reported as inconclusive: 0.158 µM [inhibitor, full curve, poor fit]. For `CCn1cnc2c1c(=O)n(CC(=O)NN)c(=O)n2Cc1ccccc1`, the Potency was inconclusive: 0.631 µM [inhibitor, full curve, poor fit]. With `COc1cc(/C=C/C(=O)NC2CCCCC2)cc(OC)c1OC` the Potency was inconclusive: 35.5 µM [inhibitor, single point]. For `O=C(O)c1ccc(N=Cc2c(O)ccc3oc4c(c23)CCCC4)cc1`, the Potency was inconclusive: 25.1 µM [inhibitor, single point]. `O=C(/C=C/Nc1cccc(C(F)(F)F)c1)c1ccco1` was tested, and the Potency was “inactive”. `O=C(/C=C/c1cccs1)NC1CCS(=O)(=O)C1` (stereo not drawn) was tested, and the Potency was “inactive”. In the case of `CSc1nnc(NC(=O)c2ccc3c(c2)OCO3)s1`, the Potency is reported as inconclusive: 39.8 µM [inhibitor, single point]. With `Cn1c(SCC(=O)NC2CCS(=O)(=O)C2)nnc1-c1ccco1` (stereo not drawn) the Potency was “inactive”. In the case of `COC(=O)c1ccc(NC(=O)Cn2ccn3nc(-c4ccc(OC)cc4)cc3c2=O)cc1`, the Potency is reported as “inactive”. In the case of `COc1ccc2c(c1)c1c(c(=O)n(-c3ccccc3C)c(=O)n1CC(N)=O)n2C`, the Potency is reported as inconclusive: 28.2 µM [inhibitor, single point]. For `COc1ccc(S(=O)(=O)Cc2ccccc2)cc1N`, the Potency was “inactive”. `CCN(C(=O)CCS(=O)(=O)c1ccc2c(c1)CCN2C(C)=O)c1cccc(C(F)(F)F)c1` was tested, and the Potency was “inactive”. For `CCOC(=O)c1ccc(S(=O)(=O)N2CCC(N3CCCCC3)CC2)cc1`, the Potency was inconclusive: 39.8 µM [inhibitor, single point]. `CCCCc1ccc(Nc2cc(C)nc(-n3nc(C)cc3C)n2)cc1` was tested, and the Potency was inconclusive: 39.8 µM [inhibitor, single point]. `Cc1cccc(C)c1Nc1c(-c2ccc(N3CCOCC3)cc2)nc2ncccn12` was tested, and the Potency was “inactive”. `COc1ccc2c(c1OC)C(=O)N(c1nc(SC)n[nH]1)C2=O` was tested, and the Potency was “inactive”. With `CN(C)S(=O)(=O)c1ccc(C(=O)NCCSc2c(-c3ccc(Br)cc3)[nH]c3ccccc23)cc1` the Potency was “inactive”. For `Cc1cc(NS(=O)(=O)c2ccc(NC(=S)NCc3ccccc3)cc2)no1`, the Potency was “inactive”. `Cc1onc(-c2c(Cl)cccc2Cl)c1C(=O)O/N=C(\C#N)c1c(Cl)cccc1Cl` was tested, and the Potency was inconclusive: 0.891 µM [inhibitor, partial curve, poor fit]. `COc1ccc(CN2CCN(C(=O)c3ccc(CNS(=O)(=O)c4ccc(C)cc4)cc3)CC2)c(OC)c1OC` was tested, and the Potency was inconclusive: 1.12 µM [inhibitor, full curve, poor fit]. For `O=C(Nc1ccc(Cl)c(Cl)c1)Nc1nnc(-c2ccncc2)s1`, the Potency was inconclusive: 1.78 µM [inhibitor, full curve, poor fit]. `COc1ccc(C(=O)Nc2cccc(/C(C)=N\NC(=O)c3ccoc3C)c2)cc1OC` was tested, and the Potency was inconclusive: 6.31 µM [inhibitor, single point]. `CCC1Cc2c(nc(N)c3c(N)nc(N4CCCCC4)c(C#N)c23)O1` (stereo not drawn) was tested, and the Potency was “inactive”. In the case of `COc1ccc(OC)c(NC(=O)c2nc(S(=O)(=O)Cc3ccccc3)ncc2Cl)c1`, the Potency is reported as inconclusive: 7.08 µM [inhibitor, full curve]. `CN1C(=O)C(O)(CC(=O)c2ccccc2O)c2cc(Br)ccc21` (stereo not drawn) was tested, and the Potency was inconclusive: 7.08 µM [inhibitor, single point]. For `CC1=NN(c2ccc(C)c(C)c2)C(=O)/C1=C\C=C\c1ccc([N+](=O)[O-])o1`, the Potency was inconclusive: 31.6 µM [inhibitor, partial curve]. `Cc1ccc(C(=O)c2nc3c(n2O)CCCC3)cc1` was tested, and the activity change, negative = inhibition was inconclusive: -94.5% [inhibitor] [at 0.501 µM]. `CN(C)c1ccc(/C=C(\NC(=O)c2ccccc2)C(=O)NCCCN2CCOCC2)cc1` was tested, and the Potency was inconclusive: 0.0794 µM [inhibitor, full curve, poor fit]. `CC1CCC(NC(=O)CCNS(=O)(=O)c2ccccc2)CC1` (stereo not drawn) was tested, and the Potency was inconclusive: 0.794 µM [inhibitor, full curve, poor fit]. `Cc1ccc(N/N=C(\C#N)C(N)=S)c(C)c1` was tested, and the Potency was inconclusive: 31.6 µM [inhibitor, single point]. With `CC(C)Cc1nn2c(=O)cc(COC(=O)c3ccccc3NC(=O)c3cccs3)nc2s1` the Potency was “inactive”. In the case of `COc1ccc(C2CC(=O)N3CN(c4ccc(C)c(Cl)c4)CSC3=C2C#N)cc1OC` (stereo not drawn), the Potency is reported as inconclusive: 14.1 µM [inhibitor, partial curve]. With `CC(=O)c1ccc(Nc2nc(C)cc(C)n2)cc1` the Potency was “inactive”. In the case of `O=C(N/N=C/c1cccc(Br)c1)c1ccc(Br)cc1`, the Potency is reported as “inactive”.
